Measured values from the supplement of paper PMC8728848.
This is one part of the list.

What was measured:
Assay in all cases: glycan array binding signal (z-score within array); higher = stronger binding
Settings in all cases: glycan notation: IUPAC condensed, linker removed
[1] = target: Neu5Ac(a2-6)Gal(b1-4)GlcNAc(b1-3)Gal(b1-4)GlcNAc(b1-6)[Gal(b1-3)]GalNAc
Summary of the method: (§1)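 Glycan array binding is given as a within-array Z-score, which can be read as non-binding when negative. The arrays, 3228 of them, came from the Consortium for Functional Glycomics database and were retained only where the protein sequence was available. Z-scores were averaged across arrays of the same protein sequence at different concentrations or buffers and across linkers.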

[2] = target: Neu5Ac(a2-6)Gal(b1-4)GlcNAc(b1-3)Gal(b1-4)[Fuc(a1-3)]GlcNAc(b1-3)Gal(b1-4)[Fuc(a1-3)]GlcNAc
Summary of the method: as §1

[3] = target: Neu5Ac(a2-6)Gal(b1-4)GlcNAc(b1-3)GalNAc
Summary of the method: as §1

[4] = target: Neu5Ac(a2-6)Gal(b1-4)GlcNAc(b1-3)[Neu5Ac(a2-6)Gal(b1-4)GlcNAc(b1-6)]GalNAc
Summary of the method: as §1

[5] = target: Neu5Ac(a2-6)Gal(b1-4)GlcNAc(b1-6)GalNAc
Summary of the method: as §1

[6] = target: Neu5Ac(a2-6)Gal(b1-4)GlcNAc(b1-6)[Gal(b1-3)GlcNAc(b1-3)]Gal(b1-4)Glc
Summary of the method: as §1

[7] = target: Neu5Ac(a2-6)Gal(b1-4)GlcNAc(b1-6)[Gal(b1-3)]GalNAc
Summary of the method: as §1

[8] = target: Neu5Ac(a2-6)Gal(b1-4)GlcNAc6S
Summary of the method: as §1

Neu5Ac(a2-6)GalNAc = target: Neu5Ac(a2-6)GalNAc
Summary of the method: as §1

[9] = target: Neu5Ac(a2-6)GalNAc(b1-4)GlcNAc
Summary of the method: as §1

[10] = target: Neu5Ac(a2-6)GalNAc(b1-4)GlcNAc6S
Summary of the method: as §1

[11] = target: Neu5Ac(a2-6)GlcNAc(b1-4)GlcNAc
Summary of the method: as §1

[12] = target: Neu5Ac(a2-6)GlcNAc(b1-4)GlcNAc(b1-4)GlcNAc
Summary of the method: as §1

Neu5Ac(a2-8)Neu5Ac = target: Neu5Ac(a2-8)Neu5Ac
Summary of the method: as §1

[13] = target: Neu5Ac(a2-8)Neu5Ac(a2-3)Gal(b1-3)GalNAc(b1-4)[Neu5Ac(a2-3)]Gal(b1-4)Glc
Summary of the method: as §1

[14] = target: Neu5Ac(a2-8)Neu5Ac(a2-3)Gal(b1-3)GalNAc(b1-4)[Neu5Ac(a2-8)Neu5Ac(a2-3)]Gal(b1-4)Glc
Summary of the method: as §1

[15] = target: Neu5Ac(a2-8)Neu5Ac(a2-3)Gal(b1-4)Glc
Summary of the method: as §1

[16] = target: Neu5Ac(a2-8)Neu5Ac(a2-3)Gal(b1-4)GlcNAc
Summary of the method: as §1

[17] = target: Neu5Ac(a2-8)Neu5Ac(a2-3)[Gal(b1-3)GalNAc(b1-4)]Gal(b1-4)Glc
Summary of the method: as §1

[18] = target: Neu5Ac(a2-8)Neu5Ac(a2-3)[GalNAc(b1-4)]Gal(b1-4)Glc
Summary of the method: as §1

[19] = target: Neu5Ac(a2-8)Neu5Ac(a2-8)Neu5Ac
Summary of the method: as §1

[20] = target: Neu5Ac(a2-8)Neu5Ac(a2-8)Neu5Ac(a2-3)Gal(b1-4)Glc
Summary of the method: as §1

[21] = target: Neu5Ac(a2-8)Neu5Ac(a2-8)Neu5Ac(a2-3)[Gal(b1-3)GalNAc(b1-4)]Gal(b1-4)Glc
Summary of the method: as §1

[22] = target: Neu5Ac(a2-8)Neu5Ac(a2-8)Neu5Ac(a2-3)[GalNAc(b1-4)]Gal(b1-4)Glc
Summary of the method: as §1

[23] = target: Neu5Ac(a2-8)Neu5Ac(a2-8)Neu5Ac(a2-8)Neu5Ac(a2-3)[GalNAc(b1-4)]Gal(b1-4)Glc
Summary of the method: as §1

[24] = target: Neu5Ac(a2-8)Neu5Gc(a2-3)Gal(b1-4)GlcNAc
Summary of the method: as §1

[25] = target: Neu5Ac(b2-6)Gal(b1-4)GlcNAc
Summary of the method: as §1

Neu5Ac(b2-6)GalNAc = target: Neu5Ac(b2-6)GalNAc
Summary of the method: as §1

[26] = target: Neu5Ac9Ac(a2-3)Gal(b1-3)GlcNAc
Summary of the method: as §1

[27] = target: Neu5Ac9Ac(a2-3)Gal(b1-4)GlcNAc
Summary of the method: as §1

[28] = target: Neu5Ac9Ac(a2-6)Gal(b1-4)GlcNAc
Summary of the method: as §1

[29] = target: Neu5Gc(a2-3)Gal(b1-3)GlcNAc
Summary of the method: as §1

[30] = target: Neu5Gc(a2-3)Gal(b1-3)[Fuc(a1-4)]GlcNAc
Summary of the method: as §1

Neu5Gc(a2-3)Gal(b1-4)Glc = target: Neu5Gc(a2-3)Gal(b1-4)Glc
Summary of the method: as §1

[31] = target: Neu5Gc(a2-3)Gal(b1-4)GlcNAc
Summary of the method: as §1

[32] = target: Neu5Gc(a2-3)Gal(b1-4)GlcNAc(b1-3)Gal(b1-4)GlcNAc(b1-2)Man(a1-3)[Neu5Gc(a2-3)Gal(b1-4)GlcNAc(b1-3)Gal(b1-4)GlcNAc(b1-2)Man(a1-6)]Man(b1-4)GlcNAc(b1-4)GlcNAc
Summary of the method: as §1

[33] = target: Neu5Gc(a2-3)Gal(b1-4)[Fuc(a1-3)]GlcNAc
Summary of the method: as §1

[34] = target: Neu5Gc(a2-6)Gal(b1-4)GlcNAc
Summary of the method: as §1

Neu5Gc(a2-6)GalNAc = target: Neu5Gc(a2-6)GalNAc
Summary of the method: as §1

[35] = target: Neu5Gc(a2-8)Neu5Ac(a2-3)Gal(b1-4)GlcNAc
Summary of the method: as §1

[36] = target: Neu5Gc(a2-8)Neu5Gc(a2-3)Gal(b1-4)GlcNAc
Summary of the method: as §1

[37] = target: Neu5Gc(a2-8)Neu5Gc(a2-3)Gal(b1-4)GlcNAc(b1-3)Gal(b1-4)GlcNAc
Summary of the method: as §1

[38] = target: Neu5Gc(a2-8)Neu5Gc(a2-6)Gal(b1-4)GlcNAc
Summary of the method: as §1

[39] = target: Neu5Gc(b2-6)Gal(b1-4)GlcNAc
Summary of the method: as §1

B1: Gal 10 (Homo sapiens), Q05315 (protein)
chain: MSLLPVPYTEAASLSTGSTVTIKGRPLVCFLNEPYLQVDFHTEMKEESDIVFHFQVCFGRRVVMNSREYGAWKQQVESKNMPFQDGQEFELSISVLPDKYQVMVNGQSSYTFDHRIKPEAVKMVQVWRDISLTKFNVSYLKR
glycan array binding signal (z-score) [1]: -0.176
glycan array binding signal (z-score) [2]: -0.201
glycan array binding signal (z-score) [3]: -0.203
glycan array binding signal (z-score) [4]: -1.2
glycan array binding signal (z-score) [5]: 0.274
glycan array binding signal (z-score) [6]: 0.056
glycan array binding signal (z-score) [7]: -0.081
glycan array binding signal (z-score) [8]: 0.192
glycan array binding signal (z-score) (Neu5Ac(a2-6)GalNAc): -1
glycan array binding signal (z-score) [9]: -0.642
glycan array binding signal (z-score) [10]: 0.07
glycan array binding signal (z-score) [11]: 0.514
glycan array binding signal (z-score) [12]: 0.144
glycan array binding signal (z-score) (Neu5Ac(a2-8)Neu5Ac): -0.579
glycan array binding signal (z-score) [13]: -0.754
glycan array binding signal (z-score) [14]: -0.741
glycan array binding signal (z-score) [15]: -0.158
glycan array binding signal (z-score) [16]: 1.21
glycan array binding signal (z-score) [17]: -0.37
glycan array binding signal (z-score) [18]: 0.591
glycan array binding signal (z-score) [19]: -0.401
glycan array binding signal (z-score) [20]: -0.112
glycan array binding signal (z-score) [21]: -0.351
glycan array binding signal (z-score) [22]: -0.414
glycan array binding signal (z-score) [23]: 0.562
glycan array binding signal (z-score) [24]: 0.008
glycan array binding signal (z-score) [25]: 0.306
glycan array binding signal (z-score) (Neu5Ac(b2-6)GalNAc): 0.803
glycan array binding signal (z-score) [26]: -0.819
glycan array binding signal (z-score) [27]: -0.479
glycan array binding signal (z-score) [28]: -0.632
glycan array binding signal (z-score) [29]: -0.31
glycan array binding signal (z-score) [30]: -0.457
glycan array binding signal (z-score) (Neu5Gc(a2-3)Gal(b1-4)Glc): -0.539
glycan array binding signal (z-score) [31]: -0.004
glycan array binding signal (z-score) [32]: -0.355
glycan array binding signal (z-score) [33]: 0.205
glycan array binding signal (z-score) [34]: -0.495
glycan array binding signal (z-score) (Neu5Gc(a2-6)GalNAc): 0.053
glycan array binding signal (z-score) [35]: -0.6
glycan array binding signal (z-score) [36]: -0.793
glycan array binding signal (z-score) [37]: 0.074
glycan array binding signal (z-score) [38]: -0.696
glycan array binding signal (z-score) [39]: -0.402
